Inconclusive means that the source gave no clear call. Such entries were picked first, then a sample of the others. Active and inactive are the calls of the source.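 Rule for the calls: active = compounds raising caspase signal whose fitted AC50 lies at or below the top valid dose tested; inconclusive = flat curve at 30 to 70 percent activity, or a poor fit; inactive = the rest.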
Assay: caspase-3/7 activation in A1-dependent Mel501 cells, dose response, A1 (Bcl2A1) inhibitor project, cell-based, human Mel501, dry powder (AID 488934)
Settings: Mel501 melanoma cells, caspase-3/7 Glo luminescence, 6 h; at 150 µM (top of the series)
Method in brief: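 System: human Mel501 melanoma cell line / Input: 2500 cells per well / Times: 6 h compound at 37 °C, 1 h reagent at room temperature / Technique: Caspase-3/7 luminescence, DEVD-luciferin substrate / Buffer or medium: RPMI-1640, 10% FBS, plus TSA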

Row | SMILES | caspase activation | outcome
1 | Nc1nc(F)nc2c1ncn2[C@@H]1O[C@H](CO)[C@@H](O)[C@H]1O | inactive: 0.438% | 
2 | CC1(C)CCC(c2ccc(Cl)cc2)=C(CN2CCN(c3ccc(C(=O)NS(=O)(=O)c4ccc(N[C@H](CCN5CCOCC5)CSc5ccccc5)c(S(=O)(=O)C(F)(F)F)c4)cc3)CC2)C1 |  | inconclusive

From PubChem BioAssay AID488934 (Broad Institute, 2010)
